According to paper PMC7862700:
This is a selection; strong and weak results do not stand in their true shares. For part of these data: At the low end of the ranking the order means little. This is one part of the list. For part of these data: The exact form of the protein is not confirmed.

Assays:
Test in all cases: DAPPL (digital affinity profiling via proximity ligation, sequencing)
Conditions in all cases: 10 mM Tris-HCl pH 7.5, 50 mM NaCl, 1 mM DTT, 4% glycerol, room temperature, 30 min; GST-TFs on glutathione beads, 16-mer random dsDNA library, 0.1% …; high values mean tight binding; double strand, one strand shown; scale: fold enrichment (6-mer frequency, TF over GST control)
GABPA = molecular target: T1, GABPA (UniProt Q06546)
T1 sequence: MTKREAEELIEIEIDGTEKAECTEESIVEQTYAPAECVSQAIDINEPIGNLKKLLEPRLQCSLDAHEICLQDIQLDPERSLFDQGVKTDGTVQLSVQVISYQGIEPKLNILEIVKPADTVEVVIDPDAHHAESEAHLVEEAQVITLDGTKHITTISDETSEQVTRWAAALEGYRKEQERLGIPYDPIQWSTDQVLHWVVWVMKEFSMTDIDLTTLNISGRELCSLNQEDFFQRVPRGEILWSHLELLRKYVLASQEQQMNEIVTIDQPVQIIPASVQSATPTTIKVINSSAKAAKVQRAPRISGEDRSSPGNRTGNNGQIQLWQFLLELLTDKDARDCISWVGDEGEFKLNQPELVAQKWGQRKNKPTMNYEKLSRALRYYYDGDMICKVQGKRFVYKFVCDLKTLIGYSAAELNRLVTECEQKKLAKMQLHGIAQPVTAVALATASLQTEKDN

ETS1 = molecular target: T2, ETS1 (UniProt P14921)
T2 sequence: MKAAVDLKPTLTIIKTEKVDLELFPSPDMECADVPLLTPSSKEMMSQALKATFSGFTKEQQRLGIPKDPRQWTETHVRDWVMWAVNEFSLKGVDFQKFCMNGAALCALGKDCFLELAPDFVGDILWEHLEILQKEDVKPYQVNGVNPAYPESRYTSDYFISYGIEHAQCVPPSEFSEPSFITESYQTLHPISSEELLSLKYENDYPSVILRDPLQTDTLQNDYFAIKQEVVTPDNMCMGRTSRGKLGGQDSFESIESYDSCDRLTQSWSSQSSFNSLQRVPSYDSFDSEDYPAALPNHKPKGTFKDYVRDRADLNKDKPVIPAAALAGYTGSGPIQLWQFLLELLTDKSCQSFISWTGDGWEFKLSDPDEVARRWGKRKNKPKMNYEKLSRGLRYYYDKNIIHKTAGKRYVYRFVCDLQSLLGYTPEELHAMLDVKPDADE

SPDEF = molecular target: T3, SPDEF (UniProt O95238)
T3 sequence: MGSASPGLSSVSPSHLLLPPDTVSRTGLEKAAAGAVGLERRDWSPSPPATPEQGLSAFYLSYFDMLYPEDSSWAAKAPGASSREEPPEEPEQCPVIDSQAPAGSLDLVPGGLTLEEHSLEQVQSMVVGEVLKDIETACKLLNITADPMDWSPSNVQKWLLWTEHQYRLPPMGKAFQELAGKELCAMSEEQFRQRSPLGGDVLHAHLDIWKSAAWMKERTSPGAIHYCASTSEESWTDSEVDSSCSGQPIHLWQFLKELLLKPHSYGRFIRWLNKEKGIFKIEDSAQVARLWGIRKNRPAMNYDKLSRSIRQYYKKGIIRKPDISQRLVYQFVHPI

Sequence | binding signal (GABPA) | binding signal (ETS1) | binding signal (SPDEF)
CGGCAT | 1.07 | 1.18 | 
GGCTTA | 1.17 | 1.15 | 
GCCCGG | 0.933 | 0.932 | 
ACCTGA | 1.03 | 1.09 | 
CTTAAC | 1.28 | 1.14 | 
GATCTA | 0.994 | 1.06 | 
GTGTTC | 1.26 | 1.06 | 
AGGATT | 0.924 | 0.977 | 
TATGCA | 1.24 | 1.27 | 
CCTGTG | 1.08 | 1.25 | 
GTAGAT | 0.978 | 0.964 | 
CGTTGT | 1 | 1.03 | 
TGAATC | 1.05 | 1.06 | 
CGATGG | 1.36 | 1.38 | 
TCATAC | 1.09 | 1.05 | 
AAGCGC | 1.12 | 1.23 | 
TATAGG | 1.19 | 1.17 | 
GCTTCC | 3.27 | 3.56 | 
TGCTCC | 1.45 | 1.43 | 
TACAGA | 1.25 | 1.1 | 
TTTTAG | 1.19 | 1.22 | 
CATGTT | 0.998 | 1.03 | 
ATATTT | 1.55 | 1.5 | 
CACACG | 1.23 | 1.11 | 
ATCAAA | 1.13 | 1.09 | 
CGCTGC | 1.25 | 1.18 | 
GGATGG | 0.983 | 1.07 | 

Sequence | binding signal (GABPA) | binding signal (ETS1) | binding signal (SPDEF)
CCGCGC | 0.958 | 1.2 | 
ATCCTT | 1.64 | 1.69 | 
CTGGTG | 1.01 | 0.998 | 
TAACGT | 0.949 | 0.894 | 
GTTCAC | 1.32 | 1.28 | 
CAATGT | 0.964 | 1.1 | 
ATCAAG | 0.914 | 0.998 | 
CCCAAA | 1.17 | 1.16 | 
ATATAA | 1.2 | 1.18 | 
CTATGG | 1.21 | 1.26 | 
CTGTAT | 1.31 | 1.36 | 
CCCAGA | 0.87 | 0.871 | 0.858
CAAGTA | 1.19 | 1.09 | 1.08
GCAATT | 1.14 | 1.21 | 1.06
AGTAAC | 0.861 | 0.94 | 0.99
CAACCG | 1 | 1.08 | 
GTGTAA | 0.901 | 0.938 | 0.893
TATCAC | 1.04 | 1.23 | 
CGCACC | 1.03 | 1.01 | 0.961
GGATTA | 0.909 | 0.841 | 1.02
AAGCCG | 0.974 | 0.879 | 0.891
GTACAG | 0.986 | 0.971 | 0.948
GTAAGC | 0.958 | 0.908 | 0.92
AAAGTC | 0.946 | 0.989 | 0.992
AGCGAA | 0.915 | 0.915 | 0.861
GAGCTC | 0.885 | 1.03 | 0.909
TAGGAT | 0.965 | 0.982 | 

Sequence | binding signal (GABPA) | binding signal (ETS1) | binding signal (SPDEF)
AGTTGC | 0.952 | 0.903 | 0.957
AGCATG | 0.948 | 0.949 | 0.96
TCCTGA | 1.47 | 1.38 | 
AGGCAC | 0.835 | 0.778 | 0.787
ATGGTC | 1.65 | 1.57 | 
TTGAAG | 0.905 | 0.929 | 
CATCCA | 0.978 | 0.976 | 0.986
TATACA | 1.42 | 1.31 | 
GGTTTG | 1.24 | 1.32 | 1.06
CTTCCA | 1.34 | 1.44 | 1.45
CAGTTC | 0.956 | 1.04 | 0.98
TGTTGT | 0.991 | 1.16 | 
GTCCGG | 0.876 | 0.85 | 1.18
ATTAGA | 0.804 | 0.999 | 0.832
AAGTAT | 1.4 | 1.43 | 1.31
ACCGTT | 1.02 | 0.955 | 1.01
TAAGGC | 0.924 | 1.03 | 0.966
GGAAGA | 1.11 | 1.03 | 0.974
CCAGCA | 0.932 | 0.887 | 0.86
AACAGA | 0.972 | 0.916 | 0.953
TTAATA | 1.18 | 1.2 | 1.14
GTCCGC | 1 | 1.07 | 
AAGCGG | 1.11 | 1.09 | 
TGGGAC | 0.925 | 0.922 | 0.915
GGTCCA | 0.876 | 0.912 | 0.847

Record cards, as listed above.
TTGAAG is listed as binding signal (GABPA) = 0.905; binding signal (ETS1) = 0.929
GGTTTG is listed as binding signal (GABPA) = 1.24; binding signal (ETS1) = 1.32; binding signal (SPDEF) = 1.06
CTTCCA is listed as binding signal (GABPA) = 1.34; binding signal (ETS1) = 1.44; binding signal (SPDEF) = 1.45
GTCCGG is listed as binding signal (GABPA) = 0.876; binding signal (ETS1) = 0.85; binding signal (SPDEF) = 1.18
